Assay results reported in paper PMC7853152.
These are yes or no findings as the source states them, for the method shown. Binding seen in cells or lysates may run through a third protein. Some entries that bind do so weakly or less than the wild type. For some assays here: Sequences can lack the tags named with a protein. Blank lines part the entries; values can stand above or below the molecule they belong to.

By UniProt entry, the sequences of proteins in these tests, tags left out.
UniProt Q5SVQ0: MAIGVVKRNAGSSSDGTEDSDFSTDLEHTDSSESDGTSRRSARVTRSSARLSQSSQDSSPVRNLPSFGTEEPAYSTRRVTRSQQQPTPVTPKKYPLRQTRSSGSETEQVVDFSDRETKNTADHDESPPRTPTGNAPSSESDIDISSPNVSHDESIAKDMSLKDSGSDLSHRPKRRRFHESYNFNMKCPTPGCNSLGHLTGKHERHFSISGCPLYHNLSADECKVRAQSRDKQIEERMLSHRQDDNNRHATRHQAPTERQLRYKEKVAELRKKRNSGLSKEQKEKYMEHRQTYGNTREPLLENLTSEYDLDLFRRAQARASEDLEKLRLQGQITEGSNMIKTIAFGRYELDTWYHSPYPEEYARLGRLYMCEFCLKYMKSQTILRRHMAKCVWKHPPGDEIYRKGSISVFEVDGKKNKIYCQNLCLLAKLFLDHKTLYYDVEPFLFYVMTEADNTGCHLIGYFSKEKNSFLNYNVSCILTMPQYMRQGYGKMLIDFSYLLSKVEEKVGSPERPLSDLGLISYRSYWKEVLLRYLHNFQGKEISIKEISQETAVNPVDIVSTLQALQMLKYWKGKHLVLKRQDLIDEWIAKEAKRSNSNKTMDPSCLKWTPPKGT

Legend:
[1] = biological target: Myst2 (endogenous, mESCs) (mouse (endogenous in mESCs)) (UniProt Q5SVQ0); assay: co-IP; endogenous proteins in MG132 treated mESCs; immunoprecipitation with Myst2 antibody; western blot with anti-Myst2, anti-Brpf3 and Huwe1 antibodies
[2] = biological target: FLAG-tagged Myst2 (bait of the first step of the sequential immunoprecipitation) (UniProt Q5SVQ0); assay: co-IP; sequential immunoprecipitation: first with anti-FLAG affinity gel, elution with 200 ng/µl 3XFLAG peptides, second with Brpf3 antibody and protein A beads
[3] = biological target: Myst2 (ectopically expressed in 293T cells) (UniProt Q5SVQ0); assay: co-IP; proteins ectopically expressed in 293T cells (Supplementary Fig. S3); bait and tags not shown
[4] = biological target: Myst2 (source not stated) (UniProt Q5SVQ0); assay: co-IP; lysates of Brpf3-overexpressing cells immunoprecipitated with anti-Myst2 antibody; western blot with anti-FLAG, anti-Huwe1 and anti-Myst2 antibodies
[5] = biological target: Myst2 (source not stated) (UniProt Q5SVQ0); assay: co-IP; Brpf3 deletion mutants with Myst2 (Supplementary Fig. S4b); cells and bait not shown

- binding [1]: binds
Molecule: Brpf3 (endogenous, mESCs) (from UniProt B2KF05 1-1204)

- binding [2]: binds
Molecule: Brpf3 (in the sequential immunoprecipitation) (from UniProt B2KF05 1-1204)

- binding [3]: binds
- binding [4]: binds
Molecule: FLAG-tagged Brpf3 (wild type) (from UniProt B2KF05 1-1204)

- binding [5]: binds
B1: FLAG-tagged Brpf3-N127 (domain or fragment, UniProt B2KF05 1-127)
chain: MRKPRRKSRQNAEGRRSPSPYSLKCSPTRETLTYAQAQRIVEVDIDGRLHRISIYDPLKIITEDELTAQDITECNSNKENSEQPQFPAKSKKPSSKGKRKESCSKHASGTSFHLPQPSFRVVDTGSQ
